Measurements from article doi:10.1101/2020.05.18.101170.
These are yes or no findings as the source states them, for the method shown. Binding seen in cells or lysates may run through a third protein. Some results given as binding are weak or reduced against the parent protein; the word gives no strength. Tags and fused reporters may be left off the sequences shown.

Sequences of proteins named here, by UniProt entry; tags and fusion partners are left off.
UniProt P32121: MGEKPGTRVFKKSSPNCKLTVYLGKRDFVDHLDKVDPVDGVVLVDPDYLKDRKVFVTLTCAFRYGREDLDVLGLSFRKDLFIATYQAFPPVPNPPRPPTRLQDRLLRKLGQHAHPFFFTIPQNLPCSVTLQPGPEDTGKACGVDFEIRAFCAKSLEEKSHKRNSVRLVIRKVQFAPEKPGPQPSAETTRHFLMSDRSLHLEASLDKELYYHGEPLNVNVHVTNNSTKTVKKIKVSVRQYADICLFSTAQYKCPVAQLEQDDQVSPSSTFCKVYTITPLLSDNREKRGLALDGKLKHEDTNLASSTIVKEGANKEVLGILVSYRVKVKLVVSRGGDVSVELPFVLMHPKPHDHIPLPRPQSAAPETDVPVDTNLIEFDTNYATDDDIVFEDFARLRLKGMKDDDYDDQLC

Target: T1, FLAG-FFA4-eYFP (mouse FFA4) (mouse) (UniProt Q7TMA4)
T1 sequence: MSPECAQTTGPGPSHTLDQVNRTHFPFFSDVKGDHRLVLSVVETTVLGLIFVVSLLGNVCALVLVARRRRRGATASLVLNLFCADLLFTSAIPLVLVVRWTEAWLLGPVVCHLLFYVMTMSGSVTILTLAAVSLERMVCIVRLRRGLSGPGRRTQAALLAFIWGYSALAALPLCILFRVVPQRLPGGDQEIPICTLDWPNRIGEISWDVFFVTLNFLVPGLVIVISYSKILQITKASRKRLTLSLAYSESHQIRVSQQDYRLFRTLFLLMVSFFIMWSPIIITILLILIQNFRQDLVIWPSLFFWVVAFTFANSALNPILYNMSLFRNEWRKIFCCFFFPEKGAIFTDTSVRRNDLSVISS
Assay: FRET or BRET

arrestin3-Rluc (from UniProt P32121 1-409)
binding: binds
